Laboratory results reported in patent publication US20110293748A1, “COMBINED PREPARATION FOR TREATING SEPSIS” (Biosyn Arzneimittel GMBH, priority 2003, published 2011).
Some of these results come from one statement about several compounds together. For at least one compound, name, drawing or mass did not settle the structure.

Test system: patients having a severe sepsis
Assay: prospective randomised study with patients having a severe sepsis (mortality rate)
Assay type: in vivo
Settings: Apache III score of more than 70 points, 1000 μg selenium bolus per day for 14 days and/or 200 mg hydrocortisone continuously over 24 hours, blood sugar adjusted with insulin below 200 mg %

Compound | reduction of the mortality rate
O=[Se]([O-])[O-].[Na+].[Na+] [selenium, sodium selenite] | 10-20%
C[C@]12CCC(=O)C=C1CC[C@@H]1[C@@H]2[C@@H](O)C[C@@]2(C)[C@H]1CC[C@]2(O)C(=O)CO [hydrocortisone] | 10-20%
